Assay results: US20250011403A1
No constants are given. Whether binding was seen depends on the method and setting. Some binding calls cover weakened binding; strength is not graded here. Sequences can lack the tags named with a protein.

What was measured:
[1] = molecular target: T1, recombinant 6His-Sp17 protein (human) (UniProt Q15506); assay: western blot
T1 sequence (looked up): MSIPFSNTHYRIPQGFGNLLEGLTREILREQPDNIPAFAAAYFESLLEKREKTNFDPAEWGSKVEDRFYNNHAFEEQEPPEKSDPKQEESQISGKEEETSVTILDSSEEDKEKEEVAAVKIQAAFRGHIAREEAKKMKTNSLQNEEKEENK

[2] = molecular target: T1, recombinant 6His-Sp17 protein (human); assay: surface plasmon resonance (Biacore T200), 6His-Sp17 at six concentrations over chAB2
[3] = molecular target: T1, recombinant 6His-Sp17 protein (human); assay: western blot of Sp17 protein
[4] = molecular target: T1, recombinant 6His-Sp17 protein (human); assay: western blot of Sp17 protein on an SDS-PAGE gel, detected with chAB2
[5] = molecular target: T1, recombinant 6His-Sp17 protein (human); assay: ELISA of phage display clones
[6] = molecular target: T1, recombinant 6His-Sp17 protein (human); assay: western blot of Sp17 protein and a tumor cell lysate

Binder | binding [1] | binding [2] | binding [3] | binding [4] | binding [5] | binding [6]
mouse-human chimeric anti-Sp17 IgG2a/kappa monoclonal antibody chAB2 (antibody, V domains shown) VH: QVQLQQSGAEVKKPGSSVKVSCKASGGTFSSYAISWVRQAPGQGLEWMGRIIPILGIANYAQKFQGRVTITADKSTSTAYMELSSLRSEDTAVYYCARPSEEVVAAYGAFDIWGQGTTVTVSS VL: EIVLTQSPLSLPVRPGEPASISCRASQSLLRSDGFNYLDWYLQKPGQSPQLLVYLGSNRASGVPDRFSGSGSGTDFTLKISRVEAEDVGVYYCMQAVQTPYIFGQGTKLEIK | binds | binds | binds | binds | – | –
anti-Sp17 Fab clone identified by bio-panning the human Fab phage display library (Fab, V domains shown) VH: QVQLQQSGAEVKKPGSSVKVSCKASGGTFSSYAISWVRQAPGQGLEWMGRIIPILGIANYAQKFQGRVTITADKSTSTAYMELSSLRSEDTAVYYCARPSEEVVAAYGAFDIWGQGTTVTVSS VL: EIVLTQSPLSLPVRPGEPASISCRASQSLLRSDGFNYLDWYLQKPGQSPQLLVYLGSNRASGVPDRFSGSGSGTDFTLKISRVEAEDVGVYYCMQAVQTPYIFGQGTKLEIK | – | – | – | – | binds | –
human anti-Sp17 IgG4/kappa monoclonal antibody SP17-AB2 (antibody, V domains shown) VH: QVQLQQSGAEVKKPGSSVKVSCKASGGTFSSYAISWVRQAPGQGLEWMGRIIPILGIANYAQKFQGRVTITADKSTSTAYMELSSLRSEDTAVYYCARPSEEVVAAYGAFDIWGQGTTVTVSS VL: EIVLTQSPLSLPVRPGEPASISCRASQSLLRSDGFNYLDWYLQKPGQSPQLLVYLGSNRASGVPDRFSGSGSGTDFTLKISRVEAEDVGVYYCMQAVQTPYIFGQGTKLEIKR | binds | – | – | – | – | binds
